## Melanoma cell counts after drug treatment

From a melanoma drug combination screen (doi:10.1371/journal.pone.0140310); values rounded.

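Human melanoma cell lines in 1,536-well plates were treated with a pair of drugs for 72 h, then fixed, stained and imaged. The read-out is cell count (nuclei) in % of the DMSO control; lower values mean stronger growth inhibition or killing. Every drug was used at one fixed concentration, the lower of two screened (a fifth of the higher). These are primary screening values without error estimates.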
An unselected part of the screen is shown.
An entry leaves out what has no value listed here.

All values are for the listed drug together with nilotinib (200 nM): Cc1cn(-c2cc(NC(=O)c3ccc(C)c(Nc4nccc(-c5cccnc5)n4)c3)cc(C(F)(F)F)c2)cn1

Results for O=C1NC(=O)/C(=C/c2ccc(-c3ccc(F)cc3O)o2)S1 at 1000 nM are COLO 792: 97.7; IST-MEL1: 97.1; MEL-HO: 93.8. Results for CCc1ccc(CCOc2ccc(CC3SC(=O)NC3=O)cc2)nc1 (stereo not drawn) at 2000 nM are COLO 792: 108; IST-MEL1: 91.6; MEL-HO: 82.2. CS(=O)(=O)CCNCc1ccc(-c2ccc3ncnc(Nc4ccc(OCc5cccc(F)c5)c(Cl)c4)c3c2)o1 at 800 nM gave COLO 792: 83.0; IST-MEL1: 101; A375: 103; MEL-HO: 95.1. Results for O=C(CCCCCCC(=O)Nc1ccccc1)NO at 80 nM are COLO 792: 105; IST-MEL1: 97.5; A375: 115; MEL-HO: 93.1. With Cn1cc(/C=C2\C(=O)Nc3cccnc32)c2ccccc21 at 400 nM the screen read COLO 792: 112; IST-MEL1: 94.4; MEL-HO: 88.0.

For Cc1cc(N2CCOCC2)cc2[nH]c(-c3c(NC[C@@H](O)c4cccc(Cl)c4)cc[nH]c3=O)nc12 at 200 nM the values were COLO 792: 84.0; IST-MEL1: 96.4; A375: 81.7; MEL-HO: 86.0. Results for CCCCCCCCc1ccc(CCC(N)(CO)CO)cc1 at 2000 nM are COLO 792: 90.9; IST-MEL1: 101; A375: 71.8; MEL-HO: 101. NC(=O)Nc1cc(-c2cccc(F)c2)sc1C(=O)N[C@H]1CCCNC1 at 20 nM gave COLO 792: 107; IST-MEL1: 108; A375: 57.4; MEL-HO: 103. Cc1cc([N+](=O)[O-])ccc1NS(=O)(=O)c1cc(Cl)ccc1Cl at 1000 nM gave COLO 792: 95.1; IST-MEL1: 90.8; MEL-HO: 106. With CC(C)CCN1c2nc(Nc3cc(F)c(O)c(F)c3)ncc2N(C)C(=O)C1C (stereo not drawn) at 200 nM the screen read COLO 792: 102; IST-MEL1: 98.3; MEL-HO: 83.1.

With O=C(/C=C/c1cccnc1)NCCCCC1CCN(C(=O)c2ccccc2)CC1 at 10 nM the screen read COLO 792: 43.8; IST-MEL1: 64.8; A375: 85.5; MEL-HO: 42.1. For COc1ccc(-c2ccc3c(N4CCOCC4)nc(N4C[C@@H](C)O[C@@H](C)C4)nc3n2)cc1CO at 20 nM the values were COLO 792: 104; IST-MEL1: 104; MEL-HO: 98.5. NC1(c2ccc(-c3nc4ccn5c(=O)[nH]nc5c4cc3-c3ccccc3)cc2)CCC1 at 400 nM gave COLO 792: 84.0; IST-MEL1: 82.0; A375: 107; MEL-HO: 85.1. With Cc1nc(Nc2ncc(C(=O)Nc3c(C)cccc3Cl)s2)cc(N2CCN(CCO)CC2)n1 at 4 nM the screen read COLO 792: 71.9; IST-MEL1: 76.9; A375: 102; MEL-HO: 88.4. Results for CCCCCCCCCCCCCCCCCCOP(=O)([O-])OC1CC[N+](C)(C)CC1 at 400 nM are COLO 792: 101; IST-MEL1: 106; A375: 122; MEL-HO: 106.

For CN(C)S(=O)(=O)c1ccc2c(c1)/C(=C/c1cc3c([nH]1)CCCC3)C(=O)N2 at 400 nM the values were COLO 792: 104; IST-MEL1: 95.8; A375: 122; MEL-HO: 98.7. With O=C(Nc1cccc(Cl)c1)Nc1ncc(CCNc2ncnc3ccsc23)s1 at 0.8 nM the screen read COLO 792: 100; IST-MEL1: 82.4; A375: 121; MEL-HO: 102. With C[As](C)SC[C@H](NC(=O)CC[C@H](N)C(=O)O)C(=O)NCC(=O)O at 400 nM the screen read COLO 792: 95.2; IST-MEL1: 90.0; A375: 107; MEL-HO: 86.9. CN1CCN(c2ccc3nc(-c4c(N)c5c(F)cccc5[nH]c4=O)[nH]c3c2)CC1 at 100 nM gave COLO 792: 122; IST-MEL1: 96.7; A375: 106; MEL-HO: 105. CC(C)(C)c1cnc(CSc2cnc(NC(=O)C3CCNCC3)s2)o1 at 10 nM gave COLO 792: 96.5; IST-MEL1: 95.7; A375: 88.0; MEL-HO: 99.9.

COc1ccc(C2=N[C@@H](c3ccc(Cl)cc3)[C@@H](c3ccc(Cl)cc3)N2C(=O)N2CCNC(=O)C2)c(OC(C)C)c1 at 100 nM gave COLO 792: 92.8; IST-MEL1: 108; A375: 87.0; MEL-HO: 86.0. For COc1ccc(COc2ccc(Cc3cnc(N)nc3N)cc2OC)cc1 at 1000 nM the values were COLO 792: 101; IST-MEL1: 106; MEL-HO: 85.9. Results for O=C(O)c1ccc(-c2c[nH]c3ncc(-c4ccccc4)cc23)cc1C1CCCC1 at 160 nM are COLO 792: 104; IST-MEL1: 96.9; A375: 84.5; MEL-HO: 86.3. For CC[C@]1(O)C[C@H]2CN(CCc3c([nH]c4ccccc34)[C@@](C(=O)OC)(c3cc4c(cc3OC)N(C=O)[C@H]3[C@@](O)(C(=O)OC)[C@H](OC(C)=O)[C@]5(CC)C=CCN6CC[C@]43[C@@H]65)C2)C1 at 0.1 nM the values were COLO 792: 140; IST-MEL1: 88.9; A375: 59.1; MEL-HO: 110.